± gives the standard deviation of the averaged measurements. The entries are a selection whose mix differs from that of the whole data set.
Compound: Nc1ncnc2c1ncn2[C@@H]1O[C@H](COP(=O)(O)OP(=O)(O)NP(=O)(O)O)[C@@H](O)[C@H]1O [adenylyl imidodiphosphate]
Experiment: NP40-soluble protein abundance relative to vehicle (solubility fold change) (ratio); higher = more soluble protein in presence of AMP-PNP
In short: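 In three independent experiments, Jurkat crude lysate made by Dounce homogenisation was treated for 10 min at room temperature and then 3 min at 37 °C with eight concentrations ranging from 0.1 to 10 mM. It was then solubilised with 0.8% NP40 plus benzonase for 60 min at 4 °C and ultracentrifuged. The supernatant was TMT-labelled for LC-MS/MS, and each value is the fold change against the detergent-processed vehicle for the same replicate, using vsn-normalised intensities.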

Sequences of proteins named here, by UniProt entry; tags and fusion partners are left off. A change or cut given only in a name is not applied to a line headed by its entry.
UniProt Q9Y4I1, whole entry: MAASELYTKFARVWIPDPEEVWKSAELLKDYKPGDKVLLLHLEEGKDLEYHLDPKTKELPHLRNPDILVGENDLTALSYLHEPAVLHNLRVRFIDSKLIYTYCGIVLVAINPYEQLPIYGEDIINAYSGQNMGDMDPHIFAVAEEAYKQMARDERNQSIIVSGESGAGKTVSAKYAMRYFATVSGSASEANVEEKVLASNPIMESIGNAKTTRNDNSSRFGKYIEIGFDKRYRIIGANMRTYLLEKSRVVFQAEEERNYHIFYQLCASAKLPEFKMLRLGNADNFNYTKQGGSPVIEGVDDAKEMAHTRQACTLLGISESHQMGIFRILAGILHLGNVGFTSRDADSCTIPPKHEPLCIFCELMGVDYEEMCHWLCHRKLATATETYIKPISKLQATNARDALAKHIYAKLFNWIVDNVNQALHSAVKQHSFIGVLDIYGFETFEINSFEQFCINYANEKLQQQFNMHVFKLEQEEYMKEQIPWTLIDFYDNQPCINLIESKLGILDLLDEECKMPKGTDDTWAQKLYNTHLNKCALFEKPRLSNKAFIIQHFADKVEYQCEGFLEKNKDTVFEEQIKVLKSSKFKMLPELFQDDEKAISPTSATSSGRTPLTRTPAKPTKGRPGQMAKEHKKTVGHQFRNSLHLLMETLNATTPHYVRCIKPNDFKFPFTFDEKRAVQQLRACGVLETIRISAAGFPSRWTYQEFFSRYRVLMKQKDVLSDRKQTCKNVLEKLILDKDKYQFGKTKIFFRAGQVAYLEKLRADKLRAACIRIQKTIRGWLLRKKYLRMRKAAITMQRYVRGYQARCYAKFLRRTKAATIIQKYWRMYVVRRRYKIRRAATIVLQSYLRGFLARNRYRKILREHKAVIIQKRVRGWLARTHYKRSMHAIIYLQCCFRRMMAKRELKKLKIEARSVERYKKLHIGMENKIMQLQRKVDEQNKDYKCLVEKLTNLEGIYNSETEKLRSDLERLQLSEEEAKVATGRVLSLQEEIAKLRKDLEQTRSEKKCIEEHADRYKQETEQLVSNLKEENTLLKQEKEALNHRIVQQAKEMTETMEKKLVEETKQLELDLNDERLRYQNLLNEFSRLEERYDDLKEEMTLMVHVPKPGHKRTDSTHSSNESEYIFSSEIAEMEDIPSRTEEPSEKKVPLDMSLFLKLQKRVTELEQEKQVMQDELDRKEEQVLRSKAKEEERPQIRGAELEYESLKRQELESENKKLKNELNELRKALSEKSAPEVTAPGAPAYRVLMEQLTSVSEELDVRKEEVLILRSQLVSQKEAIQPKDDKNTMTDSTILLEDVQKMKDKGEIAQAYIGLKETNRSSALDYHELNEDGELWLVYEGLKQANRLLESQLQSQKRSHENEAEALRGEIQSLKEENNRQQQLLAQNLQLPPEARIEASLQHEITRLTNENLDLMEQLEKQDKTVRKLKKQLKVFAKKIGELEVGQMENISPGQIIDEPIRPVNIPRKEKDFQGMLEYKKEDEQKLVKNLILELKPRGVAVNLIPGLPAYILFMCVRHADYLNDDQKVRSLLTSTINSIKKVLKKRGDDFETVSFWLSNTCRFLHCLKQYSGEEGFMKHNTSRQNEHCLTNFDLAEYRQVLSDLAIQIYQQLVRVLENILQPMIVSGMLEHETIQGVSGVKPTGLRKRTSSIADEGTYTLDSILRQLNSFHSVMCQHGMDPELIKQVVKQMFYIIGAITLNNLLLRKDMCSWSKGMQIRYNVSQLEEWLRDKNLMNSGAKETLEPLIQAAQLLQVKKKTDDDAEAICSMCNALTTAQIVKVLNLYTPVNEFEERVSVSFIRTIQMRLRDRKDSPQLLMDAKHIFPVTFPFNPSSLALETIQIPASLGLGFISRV
UniProt P59780: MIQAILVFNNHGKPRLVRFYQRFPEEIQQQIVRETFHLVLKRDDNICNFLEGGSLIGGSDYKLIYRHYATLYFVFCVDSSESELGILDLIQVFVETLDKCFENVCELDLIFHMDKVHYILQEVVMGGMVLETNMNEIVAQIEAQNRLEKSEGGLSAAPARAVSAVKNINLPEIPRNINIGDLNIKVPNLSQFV
UniProt O75521: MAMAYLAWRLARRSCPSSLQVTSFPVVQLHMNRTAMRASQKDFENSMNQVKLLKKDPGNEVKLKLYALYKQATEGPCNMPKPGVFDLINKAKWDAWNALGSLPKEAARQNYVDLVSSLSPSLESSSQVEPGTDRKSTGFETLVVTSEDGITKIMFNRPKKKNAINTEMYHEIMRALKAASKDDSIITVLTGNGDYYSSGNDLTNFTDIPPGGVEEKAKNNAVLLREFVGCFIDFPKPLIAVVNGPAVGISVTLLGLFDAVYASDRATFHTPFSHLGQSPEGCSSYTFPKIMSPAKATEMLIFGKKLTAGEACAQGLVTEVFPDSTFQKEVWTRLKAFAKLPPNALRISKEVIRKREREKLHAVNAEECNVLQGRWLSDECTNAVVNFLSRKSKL
UniProt Q9BV38: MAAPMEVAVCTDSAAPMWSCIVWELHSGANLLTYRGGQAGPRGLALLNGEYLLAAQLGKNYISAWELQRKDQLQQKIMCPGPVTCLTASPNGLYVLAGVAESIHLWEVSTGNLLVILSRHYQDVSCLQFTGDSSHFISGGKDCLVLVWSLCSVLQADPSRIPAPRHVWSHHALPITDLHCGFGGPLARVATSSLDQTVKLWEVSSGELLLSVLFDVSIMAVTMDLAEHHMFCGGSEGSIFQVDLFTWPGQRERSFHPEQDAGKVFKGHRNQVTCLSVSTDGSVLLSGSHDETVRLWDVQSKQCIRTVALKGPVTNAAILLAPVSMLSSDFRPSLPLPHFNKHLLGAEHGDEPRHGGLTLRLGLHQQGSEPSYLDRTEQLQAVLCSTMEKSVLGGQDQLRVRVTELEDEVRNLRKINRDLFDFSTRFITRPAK
UniProt Q6P3W7: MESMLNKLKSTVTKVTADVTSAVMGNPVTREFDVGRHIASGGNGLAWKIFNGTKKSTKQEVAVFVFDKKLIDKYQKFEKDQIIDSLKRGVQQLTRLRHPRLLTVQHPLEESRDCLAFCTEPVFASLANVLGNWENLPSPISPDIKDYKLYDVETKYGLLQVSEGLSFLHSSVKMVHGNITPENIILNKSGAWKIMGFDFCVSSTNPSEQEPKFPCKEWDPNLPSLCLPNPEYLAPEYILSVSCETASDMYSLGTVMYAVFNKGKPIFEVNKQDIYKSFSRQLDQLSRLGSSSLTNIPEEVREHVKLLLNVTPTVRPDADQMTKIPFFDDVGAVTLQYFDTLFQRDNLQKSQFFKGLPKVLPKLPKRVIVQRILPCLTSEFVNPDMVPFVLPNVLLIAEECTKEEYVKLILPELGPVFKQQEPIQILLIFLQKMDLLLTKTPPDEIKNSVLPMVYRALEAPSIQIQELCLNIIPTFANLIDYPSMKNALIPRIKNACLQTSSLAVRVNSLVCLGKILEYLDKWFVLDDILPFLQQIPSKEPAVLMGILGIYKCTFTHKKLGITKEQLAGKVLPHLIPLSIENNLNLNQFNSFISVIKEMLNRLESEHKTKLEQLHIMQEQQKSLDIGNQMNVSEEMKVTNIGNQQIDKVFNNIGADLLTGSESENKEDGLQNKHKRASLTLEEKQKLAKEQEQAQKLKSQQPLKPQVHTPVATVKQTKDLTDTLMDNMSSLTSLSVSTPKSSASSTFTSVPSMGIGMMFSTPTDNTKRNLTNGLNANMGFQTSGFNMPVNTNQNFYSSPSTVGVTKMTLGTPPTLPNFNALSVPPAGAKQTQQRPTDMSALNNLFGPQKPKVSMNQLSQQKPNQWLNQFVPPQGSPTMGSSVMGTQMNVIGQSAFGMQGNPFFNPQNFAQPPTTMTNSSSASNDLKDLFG
UniProt P61077: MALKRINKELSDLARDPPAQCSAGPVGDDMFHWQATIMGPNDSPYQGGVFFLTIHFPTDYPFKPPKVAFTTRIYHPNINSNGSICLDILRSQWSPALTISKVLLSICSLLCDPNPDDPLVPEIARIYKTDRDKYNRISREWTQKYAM
UniProt Q6UWW8: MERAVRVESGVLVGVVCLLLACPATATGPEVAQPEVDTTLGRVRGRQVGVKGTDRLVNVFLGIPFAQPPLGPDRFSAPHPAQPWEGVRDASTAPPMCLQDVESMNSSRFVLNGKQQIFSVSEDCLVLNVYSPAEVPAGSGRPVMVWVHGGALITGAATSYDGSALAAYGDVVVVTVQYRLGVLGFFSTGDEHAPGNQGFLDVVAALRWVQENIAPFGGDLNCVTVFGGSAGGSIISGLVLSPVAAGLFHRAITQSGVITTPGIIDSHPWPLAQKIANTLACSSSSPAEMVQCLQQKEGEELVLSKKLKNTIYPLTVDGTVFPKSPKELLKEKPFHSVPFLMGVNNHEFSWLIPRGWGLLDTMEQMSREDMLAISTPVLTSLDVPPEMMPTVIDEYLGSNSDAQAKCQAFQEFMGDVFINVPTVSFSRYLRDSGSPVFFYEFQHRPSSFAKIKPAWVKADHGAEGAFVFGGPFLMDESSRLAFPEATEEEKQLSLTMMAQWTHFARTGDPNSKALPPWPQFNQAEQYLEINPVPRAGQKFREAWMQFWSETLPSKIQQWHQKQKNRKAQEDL

Target	NP40-soluble protein abundance (concentration: 1mM)	NP40-soluble protein abundance (concentration: 2mM)	NP40-soluble protein abundance (concentration: 4mM)	NP40-soluble protein abundance (concentration: 6mM)	NP40-soluble protein abundance (concentration: 8mM)	NP40-soluble protein abundance (concentration: 10mM)
A0A087WY00|F8W6H6 and related entries (UniProt Q9Y4I1)	1.9 ± 0.27	1.97 ± 0.29	2.07 ± 0.28	2 ± 0.31	1.96 ± 0.29	2.01 ± 0.24
A0A0A6YYH1|H0YLI7 and related entries (UniProt Q7Z6K5+P59780+H0YLI7)	1 ± 0.04	1.01 ± 0.011	0.9742 ± 0.0072	0.974 ± 0.028	0.965 ± 0.032	0.968 ± 0.017
A0A0C4DGA2|O75521 and related entries (UniProt O75521)	0.997 ± 0.027	0.993 ± 0.027	0.995 ± 0.053	1.07 ± 0.024	1.06 ± 0.041	1.08 ± 0.021
A0A0A0MQU0|Q9BV38 and related entries (UniProt Q9BV38)	0.986 ± 0.037	0.996 ± 0.1	0.958 ± 0.047	0.972 ± 0.071	0.972 ± 0.054	0.957 ± 0.071
A0A0U1RQQ9|Q6P3W7 (UniProt Q6P3W7)	0.974 ± 0.023	0.962 ± 0.011	0.967 ± 0.018	0.976 ± 0.032	0.99 ± 0.028	0.985 ± 0.032
A0A087WY85|P61077 and related entries (UniProt P61077)	0.921 ± 0.043	0.875 ± 0.084	0.932 ± 0.029	0.996 ± 0.041	1 ± 0.044	0.965 ± 0.036
A0A0C4DFY7|Q6UWW8 (UniProt Q6UWW8)	1.03 ± 0.033	1.02 ± 0.022	1.02 ± 0.056	1.01 ± 0.034	1.03 ± 0.029	1.02 ± 0.015
